In the supplement of paper PMC6445147:
This is a noisy data set.

B1: human tRNA-Pro; a variant is named by its letters at N, in order (parent)
chain: GGCTCGTTGGTCTAGNGGTATGATTCTCGCTTAGGGTGCGAGAGGTCCCGGGTTCNNATCCCGGACGAGCCC

Columns and labels:
[1] = variants of: B1; test: tRNA Pol-III promoter activity, log2 (circRNA frequency / plasmid DNA frequency) (log2 ratio); higher = stronger promoter activity; details: HEK293T; construct: no Pol-II promoter ((-)CMV library)
[2] = variants of: B1; test: tRNA 3' processing efficiency (processed reads / all reads, maximum-likelihood estimate) (fraction); higher = more efficient 3' processing; details: HEK293T; construct: no Pol-II promoter ((-)CMV library)
[3] = variants of: B1; test: tRNA 5' processing efficiency (processed reads / all reads, maximum-likelihood estimate) (fraction); higher = more efficient 5' processing; details: HEK293T; construct: CMV Pol-II promoter ((+)CMV library, decapped)

Row | Variant | tRNA Pol-III promoter activity (log2) [1] | tRNA 3' processing efficiency [2] | tRNA 5' processing efficiency [3]
1 | GGCTCGTTGGTCTAGAGGTATGATTCTCGCTTAGGGTGCGAGAGGTCCCGGGTTCTAGTCCCGGACGAGCCC | 4.45 | 0.2 | –
2 | GGCTCGTTGGTCTAGAGGTATGATTCTCGCTTAGGGTGCGAGAGGTCCCGGGTTCTACTCCCGGACGAGCCC | 4.49 | 0.48 | –
3 | GGCTCGTTGGTCTAGAGGTATGATTCTCGCTTAGGGTGCGAGAGGTCCCGGGTTCTATTCCCGGACGAGCCC | 5.26 | 0.43 | –
4 | GGCTCGTTGGTCTAGGGGTTTGATTCTCGCTTAGGGTGCGAGAGGTCCCGGGTTCTACTCCCGGACGAGCCC | 2.93 | 0.38 | –
5 | GGCTCGTTGGTCTAGGGGTTTGATTCTCGCTTAGGGTGCGAGAGGTCCCGGGTTCTATTCCCGGACGAGCCC | 3.55 | 0.51 | –
6 | GGCTCGTTGGTCTAGGGGTATGATTCTCGCTTAGGGTGCGAGAGGTCCCGGGTTATAATCCCGGACGAGCCC | -1.49 | 0.25 | –
7 | GGCTCGTTGGTCTAGGGGTATGATTCTCGCTTAGGGTGCGAGAGGTCCCGGGTTGTATTCCCGGACGAGCCC | 1.83 | 0.4 | –
8 | GGCTCGTTGGTCTAGGGGTTTGATTCTCGCTTAGGGTGCGAGAGGTCCCGGGTTCTAATCCCGGACGAGCCC | 1.68 | 0.4 | 0.5
9 | GGCTCGTTGGTCTAGGGGTATGATTCTCGCTTAGGGTGCGAGAGGTCCCGGGTTCTACCCCCGGACGAGCCC | 7.21 | 0.24 | –
10 | GGCTCGTTGGTCTAGTGGTATGATTCTCGCTTAGGGTGCGAGAGGTCCCGGGTTGTAATCCCGGACGAGCCC | 3.23 | 0.75 | –
11 | GGCTCGTTGGTCTAGTGGTATGATTCTCGCTTAGGGTGCGAGAGGTCCCGGGTTATAATCCCGGACGAGCCC | 3.72 | 0.33 | –
12 | GGCTCGTTGGTCTAGCGGTTTGATTCTCGCTTAGGGTGCGAGAGGTCCCGGGTTCTAATCCCGGACGAGCCC | 2.85 | 0.25 | –
13 | GGCTCGTTGGTCTAGCGGTATGATTCTCGCTTAGGGTGCGAGAGGTCCCGGGTTGTAGTCCCGGACGAGCCC | 4.4 | 0.33 | –
14 | GGCTCGTTGGTCTAGGGGTATGATTCTCGCTTAGGGTGCGAGAGGTCCCGGGTTCTATTCCCGGACGAGCCC | 2.79 | 0.4 | –
15 | GGCTCGTTGGTCTAGGGGTATGATTCTCGCTTAGGGTGCGAGAGGTCCCGGGTTCTAGTCCCGGACGAGCCC | 4.08 | 0.29 | 0.25
16 | GGCTCGTTGGTCTAGGGGTATGATTCTCGCTTAGGGTGCGAGAGGTCCCGGGTTCTACTCCCGGACGAGCCC | 3.44 | 0.29 | –
17 | GGCTCGTTGGTCTAGCGGTATGATTCTCGCTTAGGGTGCGAGAGGTCCCGGGTTCTATTCCCGGACGAGCCC | 3.46 | 0.26 | –
18 | GGCTCGTTGGTCTAGCGGTATGATTCTCGCTTAGGGTGCGAGAGGTCCCGGGTTCTACTCCCGGACGAGCCC | 6.35 | 0.37 | –

Complete entries from above. Order of values: tRNA Pol-III promoter activity (log2) [1]	tRNA 3' processing efficiency [2]	tRNA 5' processing efficiency [3]
GGCTCGTTGGTCTAGAGGTATGATTCTCGCTTAGGGTGCGAGAGGTCCCGGGTTCTACTCCCGGACGAGCCC as listed: 4.49	0.48	–
GGCTCGTTGGTCTAGGGGTATGATTCTCGCTTAGGGTGCGAGAGGTCCCGGGTTCTAGTCCCGGACGAGCCC as listed: 4.08	0.29	0.25
